Laboratory results from patent publication US20220192985A1, “METHOD OF PRODUCTION OF A COMPOSITE OF YEAST-DERIVED BETA GLUCAN PARTICLE WITH INCORPORATED POORLY-WATER-SOLUBLE LOW-MOLECULAR-WEIGHT COMPOUND, PHARMACEUTICAL PREPARATION AND USE THEREOF” (VYSOKA SKOLA CHEMICKO-TECHNOLOGICKA V PRAZE, priority 2019, published 2022).

What was measured:
Format in all cases: physicochemical
[1] = Powder rheology shear test (FT4), Comparative Example 9; details: pre-sheared at 3 kPa; mass ratio 10%
Method: Shear tests were performed on the samples a Powder Rheometer FT4 (pre-sheared at 3 kPa consolidation and initial mass of 0.6-0.7 g). The tests were carried out per duplicate under laboratory conditions (21.2±0.7° C. and 35.1±2.0% relative humidity).

[2] = Powder rheology shear test (FT4), Example 8; details: pre-sheared at 3 kPa; ATO/GP mass ratio 25%
Method: (§1) The moisture (water content) of the samples was firstly measure using a moisture analysis balance (simple test, 100° C., 5 mg initial mass, infrared drying). The samples, ATO/GP-SD, ATO/GP-RE and crude ATO, contained 5% wt., 3% wt. and 2.5% wt. of moisture respectively. Afterwards, the samples were exposed to laboratory humidity (21° C. and 28% relative humidity), for 24 hours and the moisture content was measured again (9% wt. for ATO/GP-SD, 9% for ATO/GP-RE, and 5% for ATO). The samples were then dried for 24 hours in the oven with very-slowly-moving fan at 30° C. Finally, a shear test (FIG. 15) was performed on the samples a Powder Rheometer FT4 (pre-sheared at 3 kPa consolidation and initial mass of 0.6-0.7 g).

[3] = Moisture (water content), moisture analysis balance; details: 21° C. and 28% relative humidity, 24 hours
Method: as §1

What does the source list for `CC(C)c1c(C(=O)Nc2ccccc2)c(-c2ccccc2)c(-c2ccc(F)cc2)n1CC[C@@H](O)C[C@@H](O)CC(=O)O` [Crude ATO, atorvastatin]?
UYS (Unconfined Yield Strength) [1]: 4.57 ± 1.07 kPa; UYS (Unconfined Yield Strength) [2]: 4.27 kPa; moisture content after exposure to laboratory humidity [3]: 5 % wt.
